Values of other authors in US20110290909A1, “MULTI-COMPONENT INSECT ATTRACTANT” (priority 2006, published 2011).
For at least one compound, name, drawing or mass did not settle the structure.

Test system: male oriental fruit flies
Conditions: in vivo

For C=CCc1ccc(OC)c(OC)c1 [methyl eugenol], the “attraction of male oriental fruit flies” value is listed as “strongly attracted”.
